The target in the test is T1, Thioredoxin-interacting protein (TXNIP) (human (endogenous in ARPE-19)) (UniProt Q9H3M7).
T1 sequence: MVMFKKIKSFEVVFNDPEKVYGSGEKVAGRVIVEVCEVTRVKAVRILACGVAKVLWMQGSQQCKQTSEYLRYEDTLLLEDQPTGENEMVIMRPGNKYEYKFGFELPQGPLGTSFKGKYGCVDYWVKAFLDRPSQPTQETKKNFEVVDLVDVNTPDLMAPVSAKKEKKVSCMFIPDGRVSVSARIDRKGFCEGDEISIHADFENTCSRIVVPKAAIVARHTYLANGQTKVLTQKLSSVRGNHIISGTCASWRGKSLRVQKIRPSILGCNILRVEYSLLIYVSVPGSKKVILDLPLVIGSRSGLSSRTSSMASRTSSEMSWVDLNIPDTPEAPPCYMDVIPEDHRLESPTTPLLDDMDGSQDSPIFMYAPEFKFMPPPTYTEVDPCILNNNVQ
In words: co-IP; RPE cell lysates in RIPA buffer, precleared; anti-TXNIP antibody, protein A agarose, 4 °C; western blot (Supplementary Fig. 3b).

Results are given in words; binding and its absence hold for the method and conditions named. Binding seen in cells or lysates may run through a third protein. Some results given as binding are weak or reduced against the parent protein; the word gives no strength.

As to p53 (from UniProt P04637 1-393), the binding entry is listed as “binds”.

(Values after PMC6802648.)
